PubChem BioAssay AID1259405 | NCATS | 2018
Here is an unselected part of about 50,000 deposited reagents. About 4,000 of all reagents (8%) count as active. 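Mouse siRNA library applied to hamster cells; one well for each siRNA.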 Reagents against one gene are numbered here. Reagent sequences are not shown.

Assay: 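Knock-downs that lift recombinant protein yield in hamster ovary cells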 (primary screen)
System: Chinese hamster CHO-K1 ovary cells with stable secreted eGFP expression
Reagents: single siRNA against mouse genes, 0.8 pmol siRNA per well (2 µl of 400 nM stock)
Time to read-out: 3 days
Read-out: 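Per-well intracellular GFP measured by laser scanning cytometry, plus viability from ATP luminescence, each relative to plate median of non-targeting control wells, in %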
Scale: GFP, % of control: higher = more GFP per well, higher productivity; viability (ATP), % of control: higher = more viable cells (more ATP)
Call rule: 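a knock-down is called active if GFP reaches 120% or more of non-targeting control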

target,reagent no.,"GFP, % of control","viability (ATP), % of control",activity call
Ctnna2 (GeneID 12386),1,146,97.4,active
Ctnna2 (GeneID 12386),2,86.7,80.2,inactive
Camk2b (GeneID 12323),1,149,76,active
Camk2b (GeneID 12323),2,78.5,59,inactive
Camk2b (GeneID 12323),3,63.9,62.9,inactive
Mphosph6 (GeneID 68533),1,54.1,59.6,inactive
Mphosph6 (GeneID 68533),2,101,69.4,inactive
Mphosph6 (GeneID 68533),3,69,50.2,inactive
Slitrk3 (GeneID 386750),1,50.1,34.5,inactive
Slitrk3 (GeneID 386750),2,82.9,81.4,inactive
Slitrk3 (GeneID 386750),3,48.9,71.2,inactive
Vwa8 (GeneID 219189),1,127,76.3,active
Vwa8 (GeneID 219189),2,83.5,55.1,inactive
Vwa8 (GeneID 219189),3,93.5,89.6,inactive
Dsg3 (GeneID 13512),1,57.6,74.5,inactive
Dsg3 (GeneID 13512),2,75.2,73.8,inactive
Or6c212 (GeneID 258548),1,67.2,82.3,inactive
Or6c212 (GeneID 258548),2,34.3,35.5,inactive
Or6c212 (GeneID 258548),3,84.2,94.2,inactive
Chst11 (GeneID 58250),1,109,61,inactive
Chst11 (GeneID 58250),2,66.2,99,inactive
Chst11 (GeneID 58250),3,87,88.2,inactive
S100pbp (GeneID 74648),1,100,90.4,inactive
S100pbp (GeneID 74648),2,83.5,37.3,inactive
S100pbp (GeneID 74648),3,93.3,78.2,inactive
Fmr1 (GeneID 14265),1,108,91.7,inactive
Fmr1 (GeneID 14265),2,87.6,84.3,inactive
Fmr1 (GeneID 14265),3,71.6,63.1,inactive
Sdr42e1 (GeneID 74032),1,91.1,111,inactive
Sdr42e1 (GeneID 74032),2,69.2,74.1,inactive
9930111J21Rik2 (GeneID 245240),1,47.8,42.6,inactive
9930111J21Rik2 (GeneID 245240),2,29.7,53.9,inactive
9930111J21Rik2 (GeneID 245240),3,91,94.6,inactive
Scn9a (GeneID 20274),1,98.8,75.3,inactive
Scn9a (GeneID 20274),2,81.2,60.6,inactive
Scn9a (GeneID 20274),3,84,64.9,inactive
Il2 (GeneID 16183),1,89.4,95.3,inactive
Il2 (GeneID 16183),2,79.8,74.5,inactive
Sytl1 (GeneID 269589),1,70.9,143,inactive
Sytl1 (GeneID 269589),2,93.3,94.7,inactive
Tbx15 (GeneID 21384),1,61.5,65.6,inactive
Tbx15 (GeneID 21384),2,67.2,70.8,inactive
Tbx15 (GeneID 21384),3,85.3,79.9,inactive
Mrpl23 (GeneID 19935),1,27.3,24.6,inactive
Mrpl23 (GeneID 19935),2,48.1,31.6,inactive
Mrpl23 (GeneID 19935),3,107,49.3,inactive
Vmn1r85 (GeneID 252909),1,64.5,48.3,inactive
Vmn1r85 (GeneID 252909),2,54.5,60.5,inactive
Vmn1r85 (GeneID 252909),3,47,79.6,inactive
Tcl1b4 (GeneID 27380),1,106,99.2,inactive
Tcl1b4 (GeneID 27380),2,70.7,94.8,inactive
Tcl1b4 (GeneID 27380),3,146,106,active
Abo (GeneID 80908),1,71.5,77.8,inactive
Abo (GeneID 80908),2,90.7,68.7,inactive
Abo (GeneID 80908),3,66,53.4,inactive
Gtf3c6 (GeneID 67371),1,80,87.1,inactive
Gtf3c6 (GeneID 67371),2,86.2,95.6,inactive
Gtf3c6 (GeneID 67371),3,67.3,50.8,inactive
Tiprl (GeneID 226591),1,43.2,50,inactive
Tiprl (GeneID 226591),2,34.8,33.7,inactive
Tiprl (GeneID 226591),3,61.5,93.8,inactive
Or2b2b (GeneID 258536),1,86.4,83.2,inactive
Or2b2b (GeneID 258536),2,44.1,87.9,inactive
Or2b2b (GeneID 258536),3,46.4,87.6,inactive
Mup3 (GeneID 17842),1,97.7,71.1,inactive
Mup3 (GeneID 17842),2,89.5,101,inactive
Mup3 (GeneID 17842),3,53.8,40.9,inactive
Il4 (GeneID 16189),1,126,125,active
Il4 (GeneID 16189),2,80,81.3,inactive
Cabp1 (GeneID 29867),1,86.3,71.2,inactive
Cabp1 (GeneID 29867),2,96.8,64.6,inactive
Cabp1 (GeneID 29867),3,83.1,70.5,inactive
Or10aa3 (GeneID 258711),1,76.3,82.3,inactive
Or10aa3 (GeneID 258711),2,91.6,98.1,inactive
Or10aa3 (GeneID 258711),3,57.7,57.6,inactive
Rcor1 (GeneID 217864),1,99.9,91.2,inactive
Rcor1 (GeneID 217864),2,70.3,68.2,inactive
Rcor1 (GeneID 217864),3,117,128,inactive
Cd247 (GeneID 12503),1,67,62.1,inactive
Cd247 (GeneID 12503),2,73,86.7,inactive
Cd247 (GeneID 12503),3,66.3,64.2,inactive
Pla2g4f (GeneID 271844),1,83.4,58,inactive
Pla2g4f (GeneID 271844),2,27.7,31,inactive
Pla2g4f (GeneID 271844),3,156,90.9,active

Only “viability (ATP), % of control” (8 entries from above):
9930111J21Rik2 (GeneID 245240) #3	94.6
Scn9a (GeneID 20274) #1	75.3
Scn9a (GeneID 20274) #2	60.6
Scn9a (GeneID 20274) #3	64.9
Il2 (GeneID 16183) #1	95.3
Il2 (GeneID 16183) #2	74.5
Sytl1 (GeneID 269589) #1	143
Sytl1 (GeneID 269589) #2	94.7
